Data reported in patent publication US20140100120.
For some of these results: Where cells or extracts were used, other partners may take part. For some of these results: Construct, isoform or probe ends are uncertain for at least one entry.

Amino acid sequences for entries named in this document (tags omitted). Residues count along the entry.
UniProt P16070, 21-649: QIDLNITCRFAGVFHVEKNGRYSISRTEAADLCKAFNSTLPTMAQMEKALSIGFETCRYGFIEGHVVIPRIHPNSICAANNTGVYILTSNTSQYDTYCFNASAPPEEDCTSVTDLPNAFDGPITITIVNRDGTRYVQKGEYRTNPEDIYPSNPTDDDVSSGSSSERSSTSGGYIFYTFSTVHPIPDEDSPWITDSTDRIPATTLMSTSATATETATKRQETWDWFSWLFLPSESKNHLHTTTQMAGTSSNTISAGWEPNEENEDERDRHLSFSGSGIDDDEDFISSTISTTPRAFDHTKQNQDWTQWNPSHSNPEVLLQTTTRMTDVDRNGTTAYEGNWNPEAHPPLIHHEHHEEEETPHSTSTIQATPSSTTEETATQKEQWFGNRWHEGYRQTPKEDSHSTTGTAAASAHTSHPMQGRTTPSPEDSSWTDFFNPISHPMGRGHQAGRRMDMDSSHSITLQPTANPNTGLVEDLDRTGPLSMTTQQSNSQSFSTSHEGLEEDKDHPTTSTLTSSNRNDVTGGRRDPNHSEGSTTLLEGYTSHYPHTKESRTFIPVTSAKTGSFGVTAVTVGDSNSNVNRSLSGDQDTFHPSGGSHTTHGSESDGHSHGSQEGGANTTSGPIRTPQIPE
UniProt P16070, 20-178: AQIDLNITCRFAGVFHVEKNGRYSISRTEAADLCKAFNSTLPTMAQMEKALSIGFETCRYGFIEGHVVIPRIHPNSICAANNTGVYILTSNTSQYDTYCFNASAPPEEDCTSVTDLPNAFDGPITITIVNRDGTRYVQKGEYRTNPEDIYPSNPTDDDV

Legend:
[1] = target: CD44 on IGROV ovarian cancer cells (Homo sapiens) (UniProt P16070); experiment: binding assay; conditions: X=amino modifier C2 dT [4,15]; fluorescence imaging of IGROV cells, same pattern as anti-CD44 antibody; protein on the cell surface; label: Cy3; single-stranded DNA; letters built from the parent sequence and the stated change; variant of Motif 5 phospho NH2
[2] = target: CD44 hyaluronic acid binding domain (CD44-HABD) (UniProt P16070); experiment: filter binding; conditions: fully monothioate PS, 20 mM Tris pH 8.0, 150 mM NaCl, RT, purified recombinant protein, protein details: expressed from pET19b, refolded, label: biotin, single-stranded DNA
[3] = target: CD44 on IGROV ovarian cancer cells (Homo sapiens) (UniProt P16070); experiment: flow cytometry; conditions: 37 C, 2 h, protein on the cell surface, label: fluorescent dye, single-stranded DNA
[4] = X=amino-dU [n positions 23 = modified dU]

## AGATACAGTAAACGTCCATAGACAC [Motif 5, Cy3]
[1]
  binding result: binds

## GAGATTCATCACGCGCATAGTCCCAAGATCTGTAAGGTATCCGGGGACTGCGACTATGCGATGATGTCTTC [ADDA XA8]
[2]; X=ADDA-dU [n positions 31,33,40,49 = modified dU], variant of NH2 XA8
  Kd: 274 nM

## GAGATTCATCACGCGCATAGTCCCAAGATCTGTAAGGTATCCGGGGACTGCGACTATGCGATGATGTCTTC [NH2 XA8]
[2]; X=amino-dU [n positions 31,33,40,49 = modified dU]
  Kd: 463 nM

## GAGATTCATCACGCGCATAGTCCCAAGGCCTGCAAGGGAACCAAGTCCATTACGACTATGCGATGATGTCTTC [ADDA XA3]
[2]; X=ADDA-dU [n positions 50 = modified dU], variant of NH2 XA3
  Kd: 140 nM

## GAGATTCATCACGCGCATAGTCCCAAGGCCTGCAAGGGAACCAAGTCCATTACGACTATGCGATGATGTCTTC [NH2 XA3]
[2]; X=amino-dU [n positions 50 = modified dU]
  Kd: 111 nM

## GAGATTCATCACGCGCATAGTCTGCAGATACAGTAAACGTCCATAGACACAGCGACTATGCGATGATGTCTTC [ADDA XA5]
[2]; X=ADDA-dU [n positions 23,29,40 = modified dU], variant of NH2 XA5
  Kd: 125 nM

## GAGATTCATCACGCGCATAGTCTGCAGATACAGTAAACGTCCATAGACACAGCGACTATGCGATGATGTCTTC [NH2 XA5]
[2]; X=amino-dU [n positions 23,29,40 = modified dU], same value printed as XA4
  Kd: 137 nM

## GAGATTCATCACGCGCATAGTCTGCAGATCTGCAAGGGAAAGATAGACACAGCGACTATGCGATGATGTCTTC [ADDA XA13]
[2]; X=ADDA-dU [n positions 23 = modified dU], variant of NH2 XA13
  Kd: 312 nM

## GAGATTCATCACGCGCATAGTCTGCAGATCTGCAAGGGAAAGATAGACACAGCGACTATGCGATGATGTCTTC [NH2 XA13]
[2]; [4]
  Kd: 1380 nM

## GAGATTCATCACGCGCATAGTCTGCAGATCTGCAAGGGAACCAAGGACACTACGACTATGCGATGATGTCTTC [ADDA XA2]
[2]; X=ADDA-dU [n positions 23 = modified dU], variant of NH2 XA2
  Kd: 78.3 nM

## GAGATTCATCACGCGCATAGTCTGCAGATCTGCAAGGGAACCAAGGACACTACGACTATGCGATGATGTCTTC [NH2 XA2]
[2]; [4]
  Kd: 55.5 nM

## GAGATTCATCACGCGCATAGTCTTAAGACGCATTAATGAACCAAGGACGTGACGACTATGCGATGATGTCTTC [ADDA XA7]
[2]; X=ADDA-dU [n positions 23,24,33,37 = modified dU], variant of NH2 XA7
  Kd: 116 nM

## GAGATTCATCACGCGCATAGTCTTAAGACGCATTAATGAACCAAGGACGTGACGACTATGCGATGATGTCTTC [NH2 XA7]
[2]; X=amino-dU [n positions 23,24,33,37 = modified dU]
  Kd: 306 nM

## GAGATTCATCACGCGCATAGTCTTAAGATCTGCAATGTAACCATAGACACAGCGACTATGCGATGATGTCTTC [ADDA XA9]
[2]; X=ADDA-dU [n positions 23,24,36 = modified dU], variant of NH2 XA9
  Kd: 556 nM

## GAGATTCATCACGCGCATAGTCTTAAGATCTGCAATGTAACCATAGACACAGCGACTATGCGATGATGTCTTC [NH2 XA9]
[2]; X=amino-dU [n positions 23,24,36 = modified dU]
  Kd: 477 nM

## GAGATTCATCACGCGCATAGTCTTAAGATCTGTTAGGGAACCAAGACGACAGCGACTATGCGATGATGTCTTC [ADDA XA1]
[2]; X=ADDA-dU [n positions 23,24,31,33 = modified dU], variant of NH2 XA1
  Kd: 109 nM

## GAGATTCATCACGCGCATAGTCTTAAGATCTGTTAGGGAACCAAGACGACAGCGACTATGCGATGATGTCTTC [NH2 XA1]
[2]; X=5-(aminoethyl-3-acrylimido)-dU (amino-dU) [n positions 23,24,31,33 = modified dU]
  Kd: 62.9 nM

## GAGATTCATCACGCGCATAGTCTTAAGGCCTGTTAAATGATATCCACTACGACTATGCGATGATGTCTTC [ADDA XA12]
[2]; X=ADDA-dU [n positions 23,24,31,33,38 = modified dU], variant of NH2 XA12
  Kd: 879 nM

## GAGATTCATCACGCGCATAGTCTTAAGGCCTGTTAAATGATATCCACTACGACTATGCGATGATGTCTTC [NH2 XA12]
[2]; X=amino-dU [n positions 23,24,31,33,38 = modified dU]
  Kd: 963 nM

## GAGATTCATCACGCGCATAGTCTTGGGACGTAAGTAATGGGGGACATGACGACTATGCGATGATGTCTTC [ADDA XA11]
[2]; X=ADDA-dU [n positions 38,47 = modified dU], variant of NH2 XA11
  Kd: 1090 nM

## GAGATTCATCACGCGCATAGTCTTGGGACGTAAGTAATGGGGGACATGACGACTATGCGATGATGTCTTC [NH2 XA11]
[2]; X=amino-dU [n positions 38,47 = modified dU]
  Kd: 846 nM

## GAGATTCATCACGCGCATAGTCTTGGGGCCCAGTAGGTAACCGGGGACAGCGACTATGCGATGATGTCTTC [NH2 XA10]
[2]; no X in sequence
  Kd: 450 nM

## GAGATTCATCACGCGCATAGTCTTGGGGCCTGCAAGACGACCTAAACGATGACGACTATGCGATGATGTCTTC [ADDA XA6]
[2]; X=ADDA-dU [n positions 43,50 = modified dU], variant of NH2 XA6
  Kd: 150 nM

## GAGATTCATCACGCGCATAGTCTTGGGGCCTGCAAGACGACCTAAACGATGACGACTATGCGATGATGTCTTC [NH2 XA6]
[2]; X=amino-dU [n positions 43,50 = modified dU]
  Kd: 214 nM

## GAGATTCATCACGCGCATAGTCTTGGGGCCTGCAAGACGTCCATAGACACAGCGACTATGCGATGATGTCTTC [ADDA XA4]
[2]; X=ADDA-dU [n positions 40 = modified dU], variant of NH2 XA4
  Kd: 103 nM

## GAGATTCATCACGCGCATAGTCTTGGGGCCTGCAAGACGTCCATAGACACAGCGACTATGCGATGATGTCTTC [NH2 XA4]
[2]; X=amino-dU [n positions 40 = modified dU]
  Kd: 137 nM

## GCCTGCAAGACGTCCATAGACAC [Motif 3 ADDA adduct, fluorescent]
[3]; X=ADDA-dU [n positions 13 = modified dU], improved over amino form, variant of Motif 3 amino form, fluorescent
  binding result: binds

## GCCTGCAAGACGTCCATAGACAC [Motif 3 amino form, fluorescent]
[3]; X=amino modifier C2 dT [13], letters built from the parent sequence and the stated change, variant of Motif 3 phospho NH2
  binding result: binds
